Measurements as given in paper PMC3792889.
Results are given in words; binding and its absence hold for the method and conditions named. In cells and extracts the contact can be indirect.

The chains behind the UniProt entries cited, without tags or fusion partners.
UniProt P42859: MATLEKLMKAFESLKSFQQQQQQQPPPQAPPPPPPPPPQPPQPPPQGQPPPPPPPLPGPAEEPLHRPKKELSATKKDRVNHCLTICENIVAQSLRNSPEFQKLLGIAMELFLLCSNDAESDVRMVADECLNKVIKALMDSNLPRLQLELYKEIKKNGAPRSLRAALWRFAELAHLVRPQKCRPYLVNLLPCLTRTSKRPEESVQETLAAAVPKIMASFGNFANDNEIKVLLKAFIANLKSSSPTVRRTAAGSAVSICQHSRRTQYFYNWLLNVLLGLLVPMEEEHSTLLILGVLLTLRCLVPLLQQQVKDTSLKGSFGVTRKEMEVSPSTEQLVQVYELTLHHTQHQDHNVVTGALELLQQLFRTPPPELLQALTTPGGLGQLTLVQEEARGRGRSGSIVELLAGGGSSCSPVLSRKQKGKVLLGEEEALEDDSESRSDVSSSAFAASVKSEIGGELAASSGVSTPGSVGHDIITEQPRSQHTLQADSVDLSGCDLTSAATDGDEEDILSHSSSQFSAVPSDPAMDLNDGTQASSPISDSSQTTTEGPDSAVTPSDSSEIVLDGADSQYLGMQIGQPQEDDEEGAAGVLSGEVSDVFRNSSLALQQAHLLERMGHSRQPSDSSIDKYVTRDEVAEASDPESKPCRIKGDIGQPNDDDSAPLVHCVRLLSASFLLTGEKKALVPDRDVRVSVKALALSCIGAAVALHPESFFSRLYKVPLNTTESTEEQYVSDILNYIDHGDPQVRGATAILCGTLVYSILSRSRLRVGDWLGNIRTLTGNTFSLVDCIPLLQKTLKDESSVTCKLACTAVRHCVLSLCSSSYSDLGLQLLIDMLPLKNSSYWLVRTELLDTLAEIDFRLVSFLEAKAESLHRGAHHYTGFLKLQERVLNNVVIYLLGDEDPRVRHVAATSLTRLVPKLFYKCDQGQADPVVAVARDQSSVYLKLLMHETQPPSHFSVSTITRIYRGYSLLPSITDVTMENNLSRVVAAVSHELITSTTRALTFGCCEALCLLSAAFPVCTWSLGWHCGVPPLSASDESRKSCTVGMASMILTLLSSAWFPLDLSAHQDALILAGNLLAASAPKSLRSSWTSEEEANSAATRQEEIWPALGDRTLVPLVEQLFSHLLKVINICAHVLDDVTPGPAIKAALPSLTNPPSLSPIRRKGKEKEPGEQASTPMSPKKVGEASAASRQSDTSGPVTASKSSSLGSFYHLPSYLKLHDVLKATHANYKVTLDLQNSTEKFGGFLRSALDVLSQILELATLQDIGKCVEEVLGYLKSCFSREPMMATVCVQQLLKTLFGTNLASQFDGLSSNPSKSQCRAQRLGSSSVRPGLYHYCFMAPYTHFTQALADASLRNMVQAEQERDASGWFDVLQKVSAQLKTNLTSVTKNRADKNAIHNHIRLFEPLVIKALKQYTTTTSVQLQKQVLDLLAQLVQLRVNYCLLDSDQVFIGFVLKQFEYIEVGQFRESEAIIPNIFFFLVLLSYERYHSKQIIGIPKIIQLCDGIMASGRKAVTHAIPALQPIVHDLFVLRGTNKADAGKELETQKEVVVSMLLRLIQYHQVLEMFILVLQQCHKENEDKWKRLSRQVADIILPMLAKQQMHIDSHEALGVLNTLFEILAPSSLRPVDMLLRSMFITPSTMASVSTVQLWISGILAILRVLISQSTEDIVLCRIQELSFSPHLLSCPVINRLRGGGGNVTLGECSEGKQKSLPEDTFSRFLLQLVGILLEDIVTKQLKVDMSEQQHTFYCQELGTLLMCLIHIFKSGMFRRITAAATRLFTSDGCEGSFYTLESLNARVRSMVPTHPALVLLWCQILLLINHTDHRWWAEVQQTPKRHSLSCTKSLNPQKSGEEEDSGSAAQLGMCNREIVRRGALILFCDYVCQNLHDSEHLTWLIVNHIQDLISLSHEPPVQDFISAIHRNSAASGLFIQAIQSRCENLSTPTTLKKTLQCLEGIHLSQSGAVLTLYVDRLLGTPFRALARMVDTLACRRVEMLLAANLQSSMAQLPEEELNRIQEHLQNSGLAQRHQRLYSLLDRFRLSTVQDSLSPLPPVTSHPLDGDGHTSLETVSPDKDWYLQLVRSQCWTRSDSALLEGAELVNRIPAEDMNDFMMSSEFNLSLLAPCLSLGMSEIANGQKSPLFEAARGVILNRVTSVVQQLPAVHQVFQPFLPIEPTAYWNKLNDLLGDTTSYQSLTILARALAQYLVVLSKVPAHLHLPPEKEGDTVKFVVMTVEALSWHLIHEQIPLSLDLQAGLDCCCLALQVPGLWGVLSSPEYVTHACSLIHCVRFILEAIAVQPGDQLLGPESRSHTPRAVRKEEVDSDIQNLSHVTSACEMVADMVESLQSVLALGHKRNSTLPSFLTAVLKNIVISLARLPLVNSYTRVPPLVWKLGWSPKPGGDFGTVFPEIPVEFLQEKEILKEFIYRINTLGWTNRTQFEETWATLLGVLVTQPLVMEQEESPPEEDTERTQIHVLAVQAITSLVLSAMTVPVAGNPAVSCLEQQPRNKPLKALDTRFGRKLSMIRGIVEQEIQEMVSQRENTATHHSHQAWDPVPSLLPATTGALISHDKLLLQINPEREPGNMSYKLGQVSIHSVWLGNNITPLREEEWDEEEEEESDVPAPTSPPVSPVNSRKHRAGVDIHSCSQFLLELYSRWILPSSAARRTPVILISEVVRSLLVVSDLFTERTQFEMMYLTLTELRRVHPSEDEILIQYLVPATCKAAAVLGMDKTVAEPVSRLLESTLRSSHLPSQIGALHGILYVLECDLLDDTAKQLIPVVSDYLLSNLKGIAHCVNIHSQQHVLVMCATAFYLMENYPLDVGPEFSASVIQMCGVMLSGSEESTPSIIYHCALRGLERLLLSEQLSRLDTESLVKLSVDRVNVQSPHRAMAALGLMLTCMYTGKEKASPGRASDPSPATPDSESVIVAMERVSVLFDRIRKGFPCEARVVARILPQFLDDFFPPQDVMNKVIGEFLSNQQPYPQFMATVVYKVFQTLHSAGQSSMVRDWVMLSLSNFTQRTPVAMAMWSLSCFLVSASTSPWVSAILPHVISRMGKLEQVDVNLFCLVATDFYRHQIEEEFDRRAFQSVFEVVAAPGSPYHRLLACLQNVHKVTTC
UniProt Q60631: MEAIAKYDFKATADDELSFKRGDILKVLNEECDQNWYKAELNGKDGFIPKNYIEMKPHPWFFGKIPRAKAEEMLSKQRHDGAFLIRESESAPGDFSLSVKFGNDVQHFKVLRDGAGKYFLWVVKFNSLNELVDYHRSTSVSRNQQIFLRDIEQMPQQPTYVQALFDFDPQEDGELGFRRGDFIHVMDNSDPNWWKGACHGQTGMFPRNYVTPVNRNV

Columns and labels:
[1] = molecular target: full-length wild type HTT with 7Q (endogenous, STHdhQ7/7 cells) (mouse (endogenous in STHdhQ7/7)) (UniProt P42859); assay: co-IP; reverse: whole cell extracts of STHdhQ7/7 and STHdhQ111/111 cells; 200 ug extract incubated overnight with anti-Htt antibody and Protein A/G beads; blot with anti-Grb2 (12% SDS-PAGE)
[2] = molecular target: Growth factor receptor protein binding protein 2 (Grb2), endogenous (mouse (endogenous in STHdhQ7/7, STHdhQ111/111 and Neuro2A cells)) (UniProt Q60631); assay: co-IP; whole cell extracts of STHdhQ7/7 and STHdhQ111/111 cells; 200 ug extract incubated overnight with anti-Grb2 antibody and Protein A/G beads; blot with anti-Htt (6% SDS-PAGE)

Substance	binding [1]	binding [2]
Growth factor receptor protein binding protein 2 (Grb2), endogenous (from UniProt Q60631 1-217)	no binding	–
full-length wild type HTT with 7Q (endogenous, STHdhQ7/7 cells) (from UniProt P42859 1-3119)	–	no binding
